Results are given in words; binding and its absence hold for the method and conditions named. Some entries that bind do so weakly or less than the wild type.
What was measured:
[1] = molecular target: GST-β5cyto (GST fusion protein of the β5 integrin cytoplasmic domain) (UniProt P18084); test: ELISA, GST-β5 coated; low binding in TBS, high binding in cytoplasmic buffer with or without 2 mM calcium
[2] = molecular target: Annexin V (UniProt P08758); test: ELISA, Annexin V coated, GST fusion added, anti-GST fusion protein antibodies (not shown)

Chains of the proteins cited; added tags and fusions are not shown. Residues count along the entry.
UniProt P18084, residues 743-799: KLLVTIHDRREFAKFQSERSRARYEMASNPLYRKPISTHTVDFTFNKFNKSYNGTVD
UniProt P08758, residues 2-320: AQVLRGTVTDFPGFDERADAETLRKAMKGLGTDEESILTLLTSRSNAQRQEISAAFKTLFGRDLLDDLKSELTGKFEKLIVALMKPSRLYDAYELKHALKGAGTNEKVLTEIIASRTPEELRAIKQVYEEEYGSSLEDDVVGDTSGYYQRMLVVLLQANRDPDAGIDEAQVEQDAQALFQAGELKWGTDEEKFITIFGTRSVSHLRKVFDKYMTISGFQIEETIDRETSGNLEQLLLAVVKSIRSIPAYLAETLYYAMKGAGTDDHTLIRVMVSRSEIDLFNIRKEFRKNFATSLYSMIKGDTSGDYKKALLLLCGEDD

| binding [1] | binding [2] | Substance |
| --- | --- | --- |
| binds | – | Annexin V (from UniProt P08758 2-320) |
| – | binds | GST-β5cyto (GST fusion protein of the β5 integrin cytoplasmic domain) (from UniProt P18084 743-799) |

Reference: US20040170955A1 (University of Texas, published 2004)
